From PMC9440223
Results are given in words; binding and its absence hold for the method and conditions named. Binding seen in cells or lysates may run through a third protein. Binding calls can cover weak binding; strength is not graded here. Tags and fused reporters may be left off the sequences shown.

T1: Flag-tagged KCTD9 FL (human) (UniProt Q7L273)
T1 sequence: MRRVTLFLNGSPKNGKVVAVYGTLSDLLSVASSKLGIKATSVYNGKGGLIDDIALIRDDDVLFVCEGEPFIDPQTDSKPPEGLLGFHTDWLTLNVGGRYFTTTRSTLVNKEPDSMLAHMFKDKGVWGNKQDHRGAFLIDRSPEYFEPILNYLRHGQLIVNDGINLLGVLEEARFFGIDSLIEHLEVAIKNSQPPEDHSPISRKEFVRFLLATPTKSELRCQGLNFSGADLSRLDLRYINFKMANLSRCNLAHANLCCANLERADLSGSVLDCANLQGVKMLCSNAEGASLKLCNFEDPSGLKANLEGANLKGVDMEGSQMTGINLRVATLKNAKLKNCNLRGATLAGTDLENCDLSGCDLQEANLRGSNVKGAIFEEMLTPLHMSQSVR

B1: HA-tagged ZNT9 FL (protein, UniProt Q6PML9 68-568)
chain: STNVQKEGQGSQTLRVEKVPSFETAEGIGTELKAPLKQEPLQVRVKAVLKKREYGSKYTQNNFITGVRAINEFCLKSSDLEQLRKIRRRSPHEDTESFTVYLRSDVEAKSLEVWGSPEALAREKKLRKEAEIEYRERLFRNQKILREYRDFLGNTKPRSRTASVFFKGPGKVVMVAICINGLNCFFKFLAWIYTGSASMFSEAIHSLSDTCNQGLLALGISKSVQTPDPSHPYGFSNMRYISSLISGVGIFMMGAGLSWYHGVMGLLHPQPIESLLWAYCILAGSLVSEGATLLVAVNELRRNARAKGMSFYKYVMESRDPSTNVILLEDTAAVLGVIIAATCMGLTSITGNPLYDSLGSLGVGTLLGMVSAFLIYTNTEALLGRSIQPEQVQRLTELLENDPSVRAIHDVKATDLGLGKVRFKAEVDFDGRVVTRSYLEKQDFDQMLQEIQEVKTPEELETFMLKHGENIIDTLGAEVDRLEKELKKRNPEVRHVDLEIL

Legend:
[1] = target: T1, Flag-tagged KCTD9 FL (human); experiment: co-IP; SW620 cells co-transfected with Flag-tagged KCTD9 and HA-tagged ZNT9 constructs (full length and fragments), immunoprecipitation and Western blot
[2] = target: Flag-tagged KCTD9 C-terminal region (human); experiment: as above

Molecule	binding [1]	binding [2]
HA-tagged ZNT9 N-terminal region (amino acids 1-200) (from UniProt Q6PML9) (domain or fragment)	binds	
B1		binds
